According to the supplement of paper PMC10849652:
The list shows a part of the results.

Amino acid sequences for entries named in this document (tags omitted). A change or cut given only in a name is not applied to a line headed by its entry.
UniProt Q9Y2J2, whole entry, looked up: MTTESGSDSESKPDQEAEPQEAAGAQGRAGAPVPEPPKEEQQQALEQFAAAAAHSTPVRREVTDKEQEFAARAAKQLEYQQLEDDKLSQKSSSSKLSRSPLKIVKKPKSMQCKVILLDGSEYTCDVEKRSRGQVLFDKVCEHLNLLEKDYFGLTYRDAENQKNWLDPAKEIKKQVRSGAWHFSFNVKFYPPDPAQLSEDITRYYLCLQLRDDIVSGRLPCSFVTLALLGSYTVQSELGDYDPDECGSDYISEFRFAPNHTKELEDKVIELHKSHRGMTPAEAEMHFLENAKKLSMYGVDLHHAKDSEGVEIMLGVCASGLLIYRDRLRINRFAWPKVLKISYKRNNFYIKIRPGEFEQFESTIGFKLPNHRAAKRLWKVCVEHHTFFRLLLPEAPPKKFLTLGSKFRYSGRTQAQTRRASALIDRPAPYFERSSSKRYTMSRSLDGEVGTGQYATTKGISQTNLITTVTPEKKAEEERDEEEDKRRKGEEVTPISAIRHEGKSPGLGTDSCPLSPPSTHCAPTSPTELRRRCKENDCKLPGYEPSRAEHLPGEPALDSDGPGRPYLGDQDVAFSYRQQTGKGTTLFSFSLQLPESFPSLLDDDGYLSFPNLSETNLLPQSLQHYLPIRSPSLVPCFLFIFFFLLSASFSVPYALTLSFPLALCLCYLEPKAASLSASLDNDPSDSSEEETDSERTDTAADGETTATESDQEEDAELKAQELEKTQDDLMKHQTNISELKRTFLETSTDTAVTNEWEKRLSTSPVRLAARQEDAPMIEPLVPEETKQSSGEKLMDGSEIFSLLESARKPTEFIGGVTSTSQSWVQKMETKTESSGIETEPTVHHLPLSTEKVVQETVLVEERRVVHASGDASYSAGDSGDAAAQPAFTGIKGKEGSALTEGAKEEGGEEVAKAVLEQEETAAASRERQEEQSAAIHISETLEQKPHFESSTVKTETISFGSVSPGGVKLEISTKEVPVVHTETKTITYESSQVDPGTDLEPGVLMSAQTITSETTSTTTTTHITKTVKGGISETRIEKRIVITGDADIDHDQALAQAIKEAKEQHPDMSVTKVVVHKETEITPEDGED
UniProt Q9Y624, whole entry, looked up, stated change not applied: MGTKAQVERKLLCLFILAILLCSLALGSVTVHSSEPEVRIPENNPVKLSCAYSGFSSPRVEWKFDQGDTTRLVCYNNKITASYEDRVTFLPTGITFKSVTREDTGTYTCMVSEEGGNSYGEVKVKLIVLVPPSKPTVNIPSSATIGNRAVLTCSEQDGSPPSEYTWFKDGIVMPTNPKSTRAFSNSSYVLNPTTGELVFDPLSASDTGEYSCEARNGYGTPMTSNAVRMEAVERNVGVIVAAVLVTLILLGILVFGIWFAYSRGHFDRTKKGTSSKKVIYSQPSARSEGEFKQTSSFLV
UniProt P42566: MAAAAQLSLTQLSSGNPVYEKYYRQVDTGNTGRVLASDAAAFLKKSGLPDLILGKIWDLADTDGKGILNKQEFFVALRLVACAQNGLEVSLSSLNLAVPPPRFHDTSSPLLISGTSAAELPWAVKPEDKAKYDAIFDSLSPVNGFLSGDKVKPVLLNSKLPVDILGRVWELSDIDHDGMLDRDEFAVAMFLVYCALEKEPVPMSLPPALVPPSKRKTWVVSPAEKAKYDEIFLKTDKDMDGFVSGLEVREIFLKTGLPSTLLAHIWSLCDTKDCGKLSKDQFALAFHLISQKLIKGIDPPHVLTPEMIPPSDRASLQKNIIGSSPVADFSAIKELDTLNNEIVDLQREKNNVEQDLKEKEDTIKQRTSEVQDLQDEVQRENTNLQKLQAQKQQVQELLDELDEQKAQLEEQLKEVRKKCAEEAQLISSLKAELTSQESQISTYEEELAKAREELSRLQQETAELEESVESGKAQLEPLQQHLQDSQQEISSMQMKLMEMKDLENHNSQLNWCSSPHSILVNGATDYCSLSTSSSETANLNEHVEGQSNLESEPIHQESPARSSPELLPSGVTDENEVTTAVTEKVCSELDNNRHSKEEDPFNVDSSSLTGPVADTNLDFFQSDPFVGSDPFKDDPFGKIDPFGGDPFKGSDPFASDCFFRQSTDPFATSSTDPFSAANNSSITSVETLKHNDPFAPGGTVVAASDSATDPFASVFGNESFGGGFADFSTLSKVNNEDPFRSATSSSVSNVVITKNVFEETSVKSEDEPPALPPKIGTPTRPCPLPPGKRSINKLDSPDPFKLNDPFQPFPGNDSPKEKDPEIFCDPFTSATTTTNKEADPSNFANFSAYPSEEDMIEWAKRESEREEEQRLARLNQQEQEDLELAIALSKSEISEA
UniProt P07099: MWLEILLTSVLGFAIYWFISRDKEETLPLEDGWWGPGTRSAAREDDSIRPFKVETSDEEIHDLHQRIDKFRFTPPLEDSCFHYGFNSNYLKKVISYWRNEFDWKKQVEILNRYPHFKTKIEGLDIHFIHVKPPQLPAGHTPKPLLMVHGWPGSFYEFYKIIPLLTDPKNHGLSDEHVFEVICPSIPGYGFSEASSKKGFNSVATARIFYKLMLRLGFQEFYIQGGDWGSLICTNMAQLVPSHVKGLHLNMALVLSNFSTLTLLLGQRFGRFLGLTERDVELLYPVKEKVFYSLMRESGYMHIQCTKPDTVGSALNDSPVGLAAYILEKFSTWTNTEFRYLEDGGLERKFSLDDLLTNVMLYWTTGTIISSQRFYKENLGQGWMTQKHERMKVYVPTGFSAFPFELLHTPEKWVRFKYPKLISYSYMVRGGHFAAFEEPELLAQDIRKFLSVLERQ
UniProt Q96RQ1: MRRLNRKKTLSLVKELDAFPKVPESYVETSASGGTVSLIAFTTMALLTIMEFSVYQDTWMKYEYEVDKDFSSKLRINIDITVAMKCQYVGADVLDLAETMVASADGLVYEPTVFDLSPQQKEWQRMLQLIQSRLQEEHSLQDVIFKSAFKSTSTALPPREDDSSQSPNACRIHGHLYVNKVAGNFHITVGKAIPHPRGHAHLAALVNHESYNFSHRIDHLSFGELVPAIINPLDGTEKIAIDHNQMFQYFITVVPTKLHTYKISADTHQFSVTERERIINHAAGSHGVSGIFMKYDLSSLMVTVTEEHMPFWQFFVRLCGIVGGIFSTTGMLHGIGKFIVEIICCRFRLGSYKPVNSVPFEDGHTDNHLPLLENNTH
UniProt P11474: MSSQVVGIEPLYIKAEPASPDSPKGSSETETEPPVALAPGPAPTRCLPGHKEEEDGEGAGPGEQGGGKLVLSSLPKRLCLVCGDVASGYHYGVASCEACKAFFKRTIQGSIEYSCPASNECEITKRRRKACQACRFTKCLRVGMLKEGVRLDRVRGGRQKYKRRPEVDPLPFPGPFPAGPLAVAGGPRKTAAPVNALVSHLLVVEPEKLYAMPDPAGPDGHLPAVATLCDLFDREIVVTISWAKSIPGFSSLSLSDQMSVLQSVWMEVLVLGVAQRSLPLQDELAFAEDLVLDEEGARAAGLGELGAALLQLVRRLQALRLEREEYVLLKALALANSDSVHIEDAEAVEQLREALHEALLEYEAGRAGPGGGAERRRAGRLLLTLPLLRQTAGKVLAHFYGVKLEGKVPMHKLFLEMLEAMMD
UniProt O95571: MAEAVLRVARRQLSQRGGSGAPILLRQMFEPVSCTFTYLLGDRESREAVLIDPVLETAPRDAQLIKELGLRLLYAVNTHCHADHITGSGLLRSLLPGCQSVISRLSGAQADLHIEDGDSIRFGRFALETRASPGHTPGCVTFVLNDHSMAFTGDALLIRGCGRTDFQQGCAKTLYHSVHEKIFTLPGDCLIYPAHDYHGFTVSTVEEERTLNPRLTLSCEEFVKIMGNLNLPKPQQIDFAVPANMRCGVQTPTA
UniProt Q9NQT4, whole entry, looked up: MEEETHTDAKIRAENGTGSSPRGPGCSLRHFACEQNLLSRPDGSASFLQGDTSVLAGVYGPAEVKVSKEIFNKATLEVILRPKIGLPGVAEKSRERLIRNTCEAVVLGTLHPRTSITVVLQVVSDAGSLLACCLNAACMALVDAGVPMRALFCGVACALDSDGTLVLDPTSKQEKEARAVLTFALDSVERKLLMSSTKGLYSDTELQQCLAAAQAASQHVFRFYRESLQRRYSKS
UniProt Q01844: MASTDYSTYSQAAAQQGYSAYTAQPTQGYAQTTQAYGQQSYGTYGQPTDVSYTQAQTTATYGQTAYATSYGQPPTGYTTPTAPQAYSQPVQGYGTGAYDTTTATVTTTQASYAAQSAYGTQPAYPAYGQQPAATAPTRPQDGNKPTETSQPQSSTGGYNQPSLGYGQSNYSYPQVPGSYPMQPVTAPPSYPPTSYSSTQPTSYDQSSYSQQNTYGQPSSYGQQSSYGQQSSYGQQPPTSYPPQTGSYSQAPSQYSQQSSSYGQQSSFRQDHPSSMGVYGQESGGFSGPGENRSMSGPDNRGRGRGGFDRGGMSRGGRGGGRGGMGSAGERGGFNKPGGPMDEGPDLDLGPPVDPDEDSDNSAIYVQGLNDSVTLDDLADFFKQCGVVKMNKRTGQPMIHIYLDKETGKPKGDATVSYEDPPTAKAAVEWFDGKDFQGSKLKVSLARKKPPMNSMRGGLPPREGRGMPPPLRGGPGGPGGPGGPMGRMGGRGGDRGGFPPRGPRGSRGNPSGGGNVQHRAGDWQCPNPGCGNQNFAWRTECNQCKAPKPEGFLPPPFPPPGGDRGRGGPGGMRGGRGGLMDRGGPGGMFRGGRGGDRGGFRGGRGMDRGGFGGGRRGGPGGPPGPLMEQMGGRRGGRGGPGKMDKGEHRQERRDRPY
UniProt Q8TBG4: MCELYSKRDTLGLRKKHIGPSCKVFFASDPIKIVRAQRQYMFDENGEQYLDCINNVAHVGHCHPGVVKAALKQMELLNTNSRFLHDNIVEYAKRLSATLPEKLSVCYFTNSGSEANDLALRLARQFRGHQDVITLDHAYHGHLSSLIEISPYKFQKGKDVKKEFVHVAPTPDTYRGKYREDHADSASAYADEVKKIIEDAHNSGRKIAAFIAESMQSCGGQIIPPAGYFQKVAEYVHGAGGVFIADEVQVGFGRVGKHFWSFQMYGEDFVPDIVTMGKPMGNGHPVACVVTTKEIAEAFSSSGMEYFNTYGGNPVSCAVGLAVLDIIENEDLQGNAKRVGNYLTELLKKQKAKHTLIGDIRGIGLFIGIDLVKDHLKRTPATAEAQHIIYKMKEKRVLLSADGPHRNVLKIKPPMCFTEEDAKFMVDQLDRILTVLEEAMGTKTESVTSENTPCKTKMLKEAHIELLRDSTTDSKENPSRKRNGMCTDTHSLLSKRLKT
UniProt Q7L775: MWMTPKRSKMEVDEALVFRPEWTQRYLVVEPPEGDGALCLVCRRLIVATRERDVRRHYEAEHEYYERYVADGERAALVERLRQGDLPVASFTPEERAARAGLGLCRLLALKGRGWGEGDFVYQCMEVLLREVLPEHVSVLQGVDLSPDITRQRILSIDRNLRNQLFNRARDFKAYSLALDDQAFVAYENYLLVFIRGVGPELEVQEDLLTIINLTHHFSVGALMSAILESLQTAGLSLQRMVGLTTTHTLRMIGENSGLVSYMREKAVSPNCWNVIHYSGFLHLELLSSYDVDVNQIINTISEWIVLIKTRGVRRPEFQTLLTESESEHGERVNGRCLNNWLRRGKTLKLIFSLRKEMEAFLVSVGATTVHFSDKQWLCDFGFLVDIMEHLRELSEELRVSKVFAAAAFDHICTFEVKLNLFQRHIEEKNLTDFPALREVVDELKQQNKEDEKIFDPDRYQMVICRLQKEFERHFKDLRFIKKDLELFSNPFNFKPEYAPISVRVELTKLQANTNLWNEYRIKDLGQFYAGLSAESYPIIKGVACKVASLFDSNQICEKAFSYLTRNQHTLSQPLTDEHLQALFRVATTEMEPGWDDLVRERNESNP
UniProt Q9Y6I3: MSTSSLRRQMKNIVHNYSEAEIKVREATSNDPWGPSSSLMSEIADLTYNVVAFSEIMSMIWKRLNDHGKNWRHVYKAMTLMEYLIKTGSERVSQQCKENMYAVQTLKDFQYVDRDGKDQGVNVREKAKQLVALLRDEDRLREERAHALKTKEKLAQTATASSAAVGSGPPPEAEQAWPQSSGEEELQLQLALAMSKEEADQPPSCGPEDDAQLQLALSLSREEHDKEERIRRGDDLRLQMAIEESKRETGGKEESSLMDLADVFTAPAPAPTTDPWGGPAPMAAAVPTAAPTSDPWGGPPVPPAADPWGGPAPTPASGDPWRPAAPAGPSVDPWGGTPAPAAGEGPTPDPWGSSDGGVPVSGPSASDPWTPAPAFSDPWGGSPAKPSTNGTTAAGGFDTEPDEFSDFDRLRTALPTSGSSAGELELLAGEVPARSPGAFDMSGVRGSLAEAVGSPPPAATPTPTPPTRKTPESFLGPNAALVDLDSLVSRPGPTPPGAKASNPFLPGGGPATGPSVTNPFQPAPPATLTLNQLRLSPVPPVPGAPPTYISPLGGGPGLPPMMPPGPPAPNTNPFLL

Tests used:
Assay in all cases: log2 fold change, soluble protein after heating vs DMSO (PISA); higher = thermal stabilisation; K562 cells, 10 uM, 30 min; active = over 0.2 and 3.5 SD of the protein, either way, in both replicates (recomputed)
[1] = compound: CS(=O)(=O)c1ccc(-c2cnc(N)c(C(=O)Nc3ccccc3)n2)cc1
Method in brief: (§1)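 Quantification of soluble protein used TMTpro 16plex LC-MS/MS, with channel sums equalised. Samples were the supernatant after 21,000xg for 90 min of pooled aliquots from K562 cells (2×10^6 cells/mL) treated with 10 μM compound for 30 min, heated for 3 min over 48°C-58°C, and extracted in PBS with 0.5% NP-40 at 4°C. Values, from duplicates, describe thermal stability against control samples on a log2 fold-change scale.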

[2] = compound: C[C@@H](Oc1cc(-c2cnn(C3CCNCC3)c2)cnc1N)c1c(Cl)ccc(F)c1Cl [crizotinib]
Method in brief: as §1

[3] = compound: C[C@@H]1COCCN1C2=NC(=NC(=C2)C3(CC3)S(=O)(=O)C)C4=C5C=CNC5=CC=C4
Method in brief: as §1

[4] = compound: C[C@H](C1=CC=C(C=C1)C(=O)NC2=C3C=CNC3=NC=C2)N
Method in brief: as §1

[5] = compound: C[C@H](Nc1ncnc2nc[nH]c12)c1cc2cccc(Cl)c2c(=O)n1-c1ccccc1 [duvelisib]
Method in brief: as §1

[6] = compound: Cc1cc(Nc2cc(CN3CCOCC3)c3nc(C)c(Cc4ccc(Cl)cc4F)n3n2)n[nH]1 [gandotinib]
Method in brief: as §1

[7] = compound: Cc1cc(Nc2cc(N3CCN(C)CC3)nc(Sc3ccc(NC(=O)C4CC4)cc3)n2)n[nH]1 [tozasertib]
Method in brief: as §1

[8] = compound: Cc1cc(SCc2sc(-c3ccc(C(F)(F)F)cc3)nc2C)ccc1OCC(=O)O
Method in brief: as §1

[9] = compound: Cc1ccc(-n2nc(C(C)(C)C)cc2NC(=O)Nc2ccc(OCCN3CCOCC3)c3ccccc23)cc1 [doramapimod]
Method in brief: as §1

[10] = compound: Cc1ccc(C(=O)N(CCCN)[C@@H](c2nc3cc(Cl)ccc3c(=O)n2Cc2ccccc2)C(C)C)cc1 [ispinesib]
Method in brief: as §1

[11] = compound: Cc1ccc(NC(=O)c2ccc(CN3CC[C@H](N(C)C)C3)c(C(F)(F)F)c2)cc1Nc1nccc(-c2cncnc2)n1 [bafetinib]
Method in brief: as §1

[12] = compound: Cc1cccc(CC(=O)N2CCc3c2ccc(-c2cn(C)c4ncnc(N)c24)c3F)n1
Method in brief: as §1

[13] = compound: Cc1cn(-c2cc(NC(=O)c3ccc(C)c(Nc4nccc(-c5cccnc5)n4)c3)cc(C(F)(F)F)c2)cn1 [nilotinib]
Method in brief: as §1

[14] = compound: Cc1nc(Nc2n[nH]c3c2CN(C(=O)N[C@H](CN(C)C)c2ccccc2)C3(C)C)c2sccc2n1
Method in brief: as §1

[15] = compound: Cc1nc(Nc2ncc(C(=O)Nc3c(C)cccc3Cl)s2)cc(N2CCN(CCO)CC2)n1 [dasatinib]
Method in brief: as §1

[16] = compound: Cc1ncc(-c2ccnc(Nc3ccc(S(C)(=O)=O)cc3)n2)n1C(C)C
Method in brief: as §1

[17] = compound: Cn1cc(-c2ccc3c(c2)CCN3C(=O)Cc2cccc(C(F)(F)F)c2)c2c(N)ncnc21
Method in brief: as §1

[18] = compound: Cn1cc(-c2ccc3nnc(C(F)(F)c4ccc5ncccc5c4)n3n2)cn1
Method in brief: as §1

[19] = compound: Cn1cncc1[C@@](N)(c1ccc(Cl)cc1)c1ccc2c(c1)c(-c1cccc(Cl)c1)cc(=O)n2C [tipifarnib]
Method in brief: as §1

[20] = compound: FC(F)(F)c1ccc(/C=C/c2nc(COc3ccc(CCCCn4ccnn4)cc3)co2)cc1 [mubritinib]
Method in brief: as §1

Measured: log2 fold change

EPB41L3 (UniProt Q9Y2J2)
inactive: [1] 0.015 | [2] 0.006 | [3] 0.072 | [4] -0.112 | [5] 0.026 | [6] -0.059 | [7] -0.062 | [8] -0.016 | [9] -0.013 | [10] 0.013 | [11] -0.02 | [12] 0.063 | [13] 0.056 | [14] -0.053 | [15] 0.055 | [16] -0.061 | [17] 0.008 | [18] -0.01 | [19] -0.019 | [20] 0.03

F11R (UniProt Q9Y624)
inactive: [1] 0.008 | [2] 0.154 | [3] 0.022 | [4] -0.078 | [5] 0.039 | [6] -0.005 | [7] -0.034 | [8] -0.039 | [9] -0.039 | [10] 0.122 | [11] 0.037 | [12] -0.016 | [13] 0.01 | [14] 0.011 | [15] 0.051 | [16] -0.017 | [17] 0.012 | [18] -0.019 | [19] 0.008 | [20] 0.071

EXOSC9 isoform 2 (UniProt Q06265)
inactive: [1] 0.039 | [2] 0.039 | [3] -0.085 | [4] -0.003 | [5] 0.007 | [6] -0.013 | [7] -0.032 | [8] -0.049 | [9] -0.014 | [10] -0.044 | [11] -0.021 | [12] -0.04 | [13] 0.01 | [14] 0.012 | [15] 0.088 | [16] -0.02 | [17] -0.011 | [18] 0.035 | [19] 0.006 | [20] -0.013

EPS15 (UniProt P42566)
inactive: [1] 0.054 | [2] -0.029 | [3] 0.011 | [4] -0.006 | [5] -0.054 | [6] -0.05 | [7] 0.103 | [8] -0.003 | [9] -0.021 | [10] -0.025 | [11] -0.02 | [12] 0.034 | [13] -0.13 | [14] 0.119 | [15] -0.023 | [16] 0.065 | [17] -0.06 | [18] 0.047 | [19] -0.052 | [20] 0.051

EPHX1 (UniProt P07099)
inactive: [1] 0.032 | [2] 0.083 | [3] 0.021 | [4] -0.041 | [5] -0.046 | [6] -0.085 | [7] 0.013 | [8] -0.098 | [9] -0.015 | [10] 0.057 | [11] -0.068 | [12] 0.03 | [13] 0.009 | [14] 0.016 | [15] 0.076 | [16] -0.006 | [17] -0.002 | [18] 0.039 | [19] 0.219 | [20] 0.028

ERGIC2 (UniProt Q96RQ1)
inactive: [1] 0.006 | [2] -0.087 | [3] 0.076 | [4] -0.067 | [5] -0.002 | [6] -0.077 | [7] -0.031 | [8] 0.025 | [9] -0.007 | [10] -0.145 | [11] -0.105 | [12] 0.027 | [13] -0.038 | [14] -0.002 | [15] -0.024 | [16] -0.019 | [17] 0.057 | [18] 0.017 | [19] -0.013 | [20] 0.055

ERBIN isoform 8 (UniProt Q96RT1)
inactive: [1] -0.009 | [2] 0.011 | [3] 0.038 | [4] -0.023 | [5] 0.068 | [6] -0.137 | [7] -0.049 | [8] 0.034 | [9] 0.009 | [10] -0.037 | [11] 0.042 | [12] 0.231 | [13] 0.08 | [14] -0.036 | [15] -0.061 | [16] -0.075 | [17] 0.05 | [18] -0.056 | [19] 0.006 | [20] 0.069

ESRRA (UniProt P11474)
inactive: [1] 0.016 | [2] 0.195 | [3] -0.046 | [4] -0.036 | [5] -0.009 | [6] 0.003 | [7] 0.09 | [8] 0.056 | [9] 0.056 | [10] -0.063 | [11] -0.026 | [12] 0.015 | [13] -0.057 | [14] -0.01 | [15] -0.01 | [16] 0.068 | [17] 0.077 | [18] -0.007 | [19] -0.006 | [20] 0.003

ETHE1 (UniProt O95571)
inactive: [1] 0.002 | [2] 0.094 | [3] 0.031 | [4] -0.042 | [5] 0.028 | [6] 0.168 | [7] -0.054 | [8] -0.093 | [9] -0.028 | [10] 0.039 | [11] -0.071 | [12] 0.104 | [13] -0.013 | [14] 0.049 | [15] 0.023 | [16] -0.018 | [17] 0.045 | [18] -0.028 | [19] 0.004 | [20] -0.029

EXOSC5 (UniProt Q9NQT4)
inactive: [1] -0.031 | [2] 0.048 | [3] -0.036 | [4] -0.022 | [5] 0.036 | [6] -0.002 | [7] 0.034 | [8] -0.016 | [9] -0.01 | [10] 0.045 | [11] 0.012 | [12] -0.08 | [13] 0.007 | [14] 0.037 | [15] 0.016 | [16] -0.013 | [17] 0.014 | [18] -0.015 | [19] -0.01 | [20] -0.002

EWSR1 isoform 5 (UniProt Q01844)
inactive: [1] -0.023 | [2] 0.045 | [3] -0.069 | [4] 0.029 | [5] -0.011 | [6] -0.048 | [7] -0.001 | [8] -0.041 | [9] -0.044 | [10] 0.015 | [11] 0 | [12] -0.115 | [13] 0.016 | [14] 0.001 | [15] 0.048 | [16] 0.019 | [17] -0.024 | [18] -0.03 | [19] 0.032 | [20] -0.053

ETNPPL (UniProt Q8TBG4)
inactive: [1] -0.023 | [2] -0.132 | [3] 0.063 | [4] 0.136 | [5] -0.064 | [6] -0.186 | [7] -0.001 | [8] -0.07 | [9] 0.066 | [10] 0.017 | [11] -0.005 | [12] -0.003 | [13] 0.096 | [14] 0.109 | [15] 0.023 | [16] 0.252 | [17] 0.129 | [18] -0.029 | [19] 0.073 | [20] -0.178

EPM2AIP1 (UniProt Q7L775)
inactive: [1] 0.026 | [2] 0.007 | [3] 0.015 | [4] -0.041 | [5] 0.063 | [6] 0.001 | [7] 0.016 | [8] 0.046 | [9] 0.005 | [10] -0.034 | [11] -0.076 | [12] 0.005 | [13] 0.002 | [14] -0.066 | [15] -0.026 | [16] 0.008 | [17] 0.029 | [18] -0.009 | [19] -0.007 | [20] 0.047

Pulled one by one from the entries so far (2):
EPM2AIP1 (UniProt Q7L775)
inactive: [1] 0.026 | [2] 0.007 | [3] 0.015 | [4] -0.041 | [5] 0.063 | [6] 0.001 | [7] 0.016 | [8] 0.046 | [9] 0.005 | [10] -0.034 | [11] -0.076 | [12] 0.005 | [13] 0.002 | [14] -0.066 | [15] -0.026 | [16] 0.008 | [17] 0.029 | [18] -0.009 | [19] -0.007 | [20] 0.047

EXOSC5 (UniProt Q9NQT4)
inactive: [1] -0.031 | [2] 0.048 | [3] -0.036 | [4] -0.022 | [5] 0.036 | [6] -0.002 | [7] 0.034 | [8] -0.016 | [9] -0.01 | [10] 0.045 | [11] 0.012 | [12] -0.08 | [13] 0.007 | [14] 0.037 | [15] 0.016 | [16] -0.013 | [17] 0.014 | [18] -0.015 | [19] -0.01 | [20] -0.002

Remaining list, next part.

FAM136A (UniProt Q96C01)
inactive: [1] -0.029 | [2] 0.112 | [3] 0.127 | [4] -0.087 | [5] 0.077 | [6] -0.052 | [7] 0.024 | [8] -0.028 | [9] 0.013 | [10] 0.029 | [11] -0.031 | [12] -0.022 | [13] -0.006 | [14] -0.003 | [15] 0.053 | [16] -0.002 | [17] 0.036 | [18] 0.057 | [19] -0.022 | [20] -0.005

ERGIC3 isoform 3 (UniProt Q9Y282)
inactive: [1] -0.022 | [2] -0.015 | [3] -0.003 | [4] -0.006 | [5] -0.021 | [6] -0.015 | [7] 0.024 | [8] -0.027 | [9] -0.01 | [10] -0.054 | [11] -0.098 | [12] -0.024 | [13] -0.014 | [14] -0.026 | [15] 0.005 | [16] 0.002 | [17] -0.003 | [18] 0.015 | [19] 0.025 | [20] -0.018

EPN1 (UniProt Q9Y6I3)
inactive: [1] 0.01 | [2] -0.005 | [3] 0.085 | [4] -0.025 | [5] 0.027 | [6] -0.046 | [7] 0.033 | [8] 0.008 | [9] -0.005 | [10] -0.026 | [11] -0.102 | [12] 0.006 | [13] -0.075 | [14] -0.006 | [15] -0.064 | [16] -0.02 | [17] 0.035 | [18] 0.005 | [19] -0.05 | [20] 0.073
